In PubChem BioAssay AID504834 (National Center for Advancing Translational Sciences (NCATS), 2011):
Out of some 320,000 compounds screened, about 22,000 (6.9%) were called active. The inconclusive results got no clear call from the source; some entries with a clear call stand among them for comparison. The call rests on the fitted dose curve; in most records, active means well fitted inhibition curve with a large enough effect; inconclusive means small, poorly fitted or top-dose-only effect, or another doubt; inactive means no such curve, though single readings can be large or run the other way. Potencies of inconclusive entries are doubtful fits and often do not repeat.

Assay: Primary qHTS for delayed death inhibitors of the malarial parasite plastid, 96 hour incubation
Details: P. falciparum luciferase reporter growth; series mostly up to 28.7 µM; activity change, negative = inhibition: at the top concentration
Procedure, shortened: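 96 h incubation, 37 C, 5% CO2, of luciferase-reporter P. falciparum-infected RBCs (2% hematocrit, 0.05% parasitemia final) with test compounds; endpoint luminescence.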
On the % scale 0 is the no-effect control and ±100 the full control effect; potency means the concentration at half of the fitted maximal effect.

SMILES	Potency	activity change, negative = inhibition
COCC(C)N1CCC(n2nccc2NC(=O)CCOc2ccccc2)CC1 (stereo unspecified)	inconclusive: 2.62 µM [inhibitor, partial curve, poor fit]	
COc1cc2oc(-c3ccc(O)cc3)cc(=O)c2c(O)c1OC	active: 10.4 µM	
Cc1cc(C(F)(F)F)nn1Cc1n[nH]c(=S)n1-c1ccc(Cl)cc1	inconclusive: 11.7 µM [inhibitor, single point]	
Cc1ccccc1OCC1Cn2c(nc3c2c(=O)n(C)c(=O)n3C)O1 (stereo unspecified)		inactive: 0.0879%
CN(Cc1cn(C)nc1-c1ccc(Oc2ccccc2)cc1)CC1COCCO1 (stereo unspecified)	inconclusive: 18.5 µM [inhibitor, single point]	
Cn1cc(Br)c(C(=O)NC(=S)Nc2ccc(S(N)(=O)=O)cc2)n1		inactive: 3.6%
CCOc1ccc(C(=O)NCC(=O)OCc2c(C)noc2C)cc1		inactive: 8.17%
O=S(=O)(CCc1ccncc1)C1Cc2cccc3cccc1c23 (stereo unspecified)		inactive: 0.257%
Cc1ccc(Cn2nnc3c(=O)[nH]c(C4CCN(S(=O)(=O)Cc5ccccc5)CC4)nc32)cc1		inactive: 147%
C/C(=N\NC(=O)c1ccccc1)c1ccc(C)c([N+](=O)[O-])c1	inconclusive: 8.28 µM [inhibitor, partial curve, poor fit]	
COc1ccc(C(=O)/C=C/c2ccc(N3CCCCC3)c([N+](=O)[O-])c2)cc1	inconclusive: 18.5 µM [inhibitor, single point]	
COCCCN1C(=O)C(=O)/C(=C(/O)c2ccc(C)cc2)C1c1ccccc1 (stereo unspecified)		inactive: 265%
CCOC(=O)Cc1csc(Nc2c(C)n(C)n(-c3ccccc3)c2=O)n1		inactive: -10.6%
COc1ccccc1NS(=O)(=O)c1ccc2c(c1)OCCO2		inactive: 28.1%
COc1ccc(CN(C(=O)c2ccc(-c3ccccc3)[nH]2)C(C(=O)NC(C)(C)C)c2ccncc2)cc1 (stereo unspecified)	inconclusive: 18.5 µM [inhibitor, single point]	
CCOc1ccc(CNC(=O)c2ccc(Sc3ccc(C)cc3)c(NC(C)=O)c2)cc1OC	active: 11.7 µM	
CCOc1ccc(NC(=O)c2cccc3c2C(=O)N(Cc2cccnc2)C3)cc1		inactive: 2.46%
NNC(=O)c1csc(Cc2c(Cl)sc3ccc(Cl)cc23)n1		inactive: -18.5%
CCOC(=O)C1(CCOC)CCN(Cc2ccc(COC)o2)CC1	inconclusive: 16.5 µM [inhibitor, partial curve, poor fit]	
Cc1ccnc(SCc2cn3c(C)cc(C)nc3n2)n1	inconclusive: 11.7 µM [inhibitor, single point]	
CC(C(=O)OCn1nnc2ccccc2c1=O)N1C(=O)c2ccccc2C1=O (stereo unspecified)	inconclusive: 18.5 µM [inhibitor, single point]	

Given with bars between the fields: entries from further up
SMILES | Potency | activity change, negative = inhibition
CN(Cc1cn(C)nc1-c1ccc(Oc2ccccc2)cc1)CC1COCCO1 (stereo unspecified) | inconclusive: 18.5 µM [inhibitor, single point] | 
Cn1cc(Br)c(C(=O)NC(=S)Nc2ccc(S(N)(=O)=O)cc2)n1 |  | inactive: 3.6%
